Experimental data published in PubChem BioAssay AID493014 (National Center for Advancing Translational Sciences (NCATS), 2011).
The list shows a part of the results. These are further read-outs of the screen, such as a control signal, another cell line or another target. No call is given for them. Most of these compounds were active or inconclusive in the main read-out, so they are no random draw. Words in brackets tell the shape of the fitted curve; partial curves, single points and poor fits give uncertain potencies.

Test: qHTS Assay to Find Inhibitors of Chronic Active B-Cell Receptor Signaling
Conditions: ABC-DLBCL IkBa-CBG/CBR reporter, luminescence ratio (green luciferase fused to IkBa over red control in TMD8 lymphoma cells), 4 h
In short: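 Cell line TMD8 (human ABC DLBCL), stably expressing tet-inducible CBG68-IkBa fusion and CBR; IMDM/0.5% FBS; cpd up to 46 uM; dox induction, 4 h, 37C/5% CO2; dual luminescence; green/red ratio; MG132 control.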

[1] = measured here: CBR red luminescence, cell number
[2] = measured here: IkBa-CBG green luminescence

Compound	AC50 [1]	AC50 [2]
Cc1cc(C)cc(N(C(=O)C2CCCC2)C2C=CS(=O)(=O)C2)c1 (configuration not stated)	22.4 µM [falling, single point]	–
CCCNc1nc(C)cc(-c2cc(-c3ccccc3)on2)n1	0.891 µM [rising, full curve, poor fit]	–
O=C(O)c1cccc(Nc2nc(-c3cc4ccccc4oc3=O)cs2)c1	6.31 µM [falling, partial curve]	–
Cc1cccc(-c2cc3nc(-c4ccccc4)cc(=O)n3[nH]2)c1	2 µM [falling, full curve]	–
Cc1ccc(C(C(=O)NC(C)(C)C)N(C(=O)c2csnn2)c2cccc(F)c2)o1 (configuration not stated)	0.326 µM [falling, full curve, poor fit]	–
COc1ccc(Cl)cc1/C=N/NC(=O)c1c(-c2ccccc2)noc1C	14.1 µM [falling, single point]	–
COc1ccc2c(c1)CCc1c(C(=O)N3CCOCC3)noc1-2	1.64 µM [rising, full curve, poor fit]	–
CCCOc1cccc(C(=O)Nc2cccc(-c3nc4ncccc4o3)c2C)c1	5.01 µM [falling, partial curve, poor fit]	–
O=C(Nc1ccccc1)Nc1cccc(Cl)c1Cl	20.6 µM [falling, single point]	–
CCOC(=O)C1CCCN(C(=O)c2cccs2)C1 (configuration not stated)	20.6 µM [rising, partial curve, poor fit]	–
c1ccc2c(c1)Cc1cc3ccccc3nc1-2	0.708 µM [rising, full curve, poor fit]	–
Cc1nnc(N2CCC(C(=O)N3CCCCCC3)CC2)c2nn(-c3ccc(Cl)cc3)c(C)c12	2.24 µM [falling, partial curve]	–
N#C/C(=C\c1ccc(-c2cccc(Cl)c2)o1)C(=O)Nc1cccc2cccnc12	29.1 µM [rising, single point]	–
Cc1cccc(NC(=O)c2ccc(COc3ccc(Cl)cc3Cl)o2)n1	23.1 µM [falling, single point]	–
CCCN1C2=NS(=O)(=O)CCN2c2ccccc21	13 µM [rising, partial curve, poor fit]	–
O=C(Nc1nc(-c2ccccn2)cs1)C1COc2ccccc2O1 (configuration not stated)	11.6 µM [falling, partial curve, poor fit]	–
O=C(C1CCCN(S(=O)(=O)c2ccc(F)cc2)C1)N(Cc1cccs1)C1CC1 (configuration not stated)	12.6 µM [falling, partial curve, poor fit]	–
CC1CCC(NC(=O)c2ccc3c(c2)OCO3)CC1 (configuration not stated)	22.4 µM [falling, partial curve, poor fit]	–
CCOC(=O)Cc1csc(NC(=O)COc2ccc(N(C)S(=O)(=O)c3cccs3)cc2)n1	35.5 µM [falling, single point]	–
COc1ccccc1N1CCN(C(=O)CSc2ccccc2)CC1	3.26 µM [rising, full curve]	–

Compound	AC50 [1]	AC50 [2]
CSc1ccc(-c2sc(Nc3cccc4ccccc34)n[n+]2-c2ccccc2)cc1	1.58 µM [rising, partial curve, poor fit]	–
COc1ccc(OC)c(-c2nnc3n2N=C(c2ccc(OC(F)F)c(OCC4CC4)c2)CS3)c1	4.11 µM [falling, single point]	18.4 µM [falling, single point]
COc1ccc(NS(=O)(=O)c2cccc(NC(=O)c3ccc(Cl)nc3)c2)cc1	8.91 µM [falling, partial curve, poor fit]	–
COc1cc(C(C)=O)ccc1OCCCOc1cccc2cccnc12	11.2 µM [rising, partial curve]	–
CCOc1ccc(C(=O)OCC(=O)N2CCCC2)cc1	6.31 µM [falling, single point]	–
CCN(CC)S(=O)(=O)c1ccc(N2CCCC2)c(NC(=O)c2nn(C)c(=O)c3ccccc23)c1	0.461 µM [rising, single point]	–
C#CC(C)(CC)NC(=O)Cn1nnc(-c2cccc(C(F)(F)F)c2)n1 (configuration not stated)	12.6 µM [rising, single point]	–
COc1ccc(-c2cn[nH]c2-c2ccc(OCc3ccccc3)cc2O)cc1OC	15.8 µM [falling, single point]	–
CCOc1ccccc1NC=C1C(=O)OC2(CCCCC2)OC1=O	4.61 µM [falling, single point]	–
N#Cc1c(C(F)(F)F)cc(-c2cccc(Cl)c2)[nH]c1=O	20.6 µM [falling, single point]	–
BrC(=C\c1ccccc1)/C=N/Nc1nc2ccccc2[nH]1	32.6 µM [falling, partial curve, poor fit]	–
CC(=O)Oc1ccc(N(C(C)=O)S(=O)(=O)c2ccc(Cl)cc2)c2ccccc12	15.8 µM [falling, single point]	12.6 µM [falling, partial curve, poor fit]
O=C(COC(=O)/C=C/c1ccccc1Cl)NC(=O)NCc1ccccc1	2.59 µM [rising, full curve, poor fit]	–
OC(CN1CCOCC1)C12CC3CC(CC(C3)C1)C2 (configuration not stated)	29.1 µM [falling, single point]	–
O=C(N/N=C/c1ccco1)c1cccc(N2Cc3ccccc3C2)c1	7.08 µM [falling, full curve]	–
Cc1cc(C)cc(OCC(=O)N(C)CC(=O)Nc2ccc(N3CCOCC3)cc2)c1	29.1 µM [rising, single point]	–
O=C(O)c1ccc(N/N=C/c2cc3cc4c(cc3nc2Cl)OCCO4)cc1	1.58 µM [falling, full curve]	–
COc1ccc(NC(=O)/C(N=Nc2cc(S(=O)(=O)Nc3ccc(OC)cc3)ccc2OC)=C(\C)O)cc1	12.6 µM [rising, partial curve, poor fit]	–
Cc1cccc(Cn2c(C(=O)OC(C)C)cc3c2ccn3C)c1	8.2 µM [rising, partial curve]	–
NC(=O)CSc1nnc(NC(=O)c2ccc(Br)o2)s1	35.5 µM [falling, single point]	–

Two successive entries already listed:
Compound	AC50 [1]	AC50 [2]
O=C(N/N=C/c1ccco1)c1cccc(N2Cc3ccccc3C2)c1	7.08 µM [falling, full curve]	–
Cc1cc(C)cc(OCC(=O)N(C)CC(=O)Nc2ccc(N3CCOCC3)cc2)c1	29.1 µM [rising, single point]	–
